Measured values: paper PMC9873702
No constants are given. Whether binding was seen depends on the method and setting. In cells and extracts the contact can be indirect. Some entries that bind do so weakly or less than the wild type.

Protein sequences, listed by entry. Tags and fused reporters are not part of them. Chains listed by the source or under a name are the forms on record and can include a tag or linker. Residues count along the entry.
GluN2A C-terminal domain (aa 1244-1464), myc-tagged (P35436, residues 1244-1464): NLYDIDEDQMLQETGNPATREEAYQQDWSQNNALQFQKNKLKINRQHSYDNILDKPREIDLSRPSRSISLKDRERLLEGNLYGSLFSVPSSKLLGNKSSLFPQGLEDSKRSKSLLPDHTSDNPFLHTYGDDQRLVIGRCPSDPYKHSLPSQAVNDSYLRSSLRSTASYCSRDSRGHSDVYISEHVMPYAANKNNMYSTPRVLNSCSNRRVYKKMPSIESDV
GluN2A-CTD aa 1244-1388 (P35436, residues 1244-1388): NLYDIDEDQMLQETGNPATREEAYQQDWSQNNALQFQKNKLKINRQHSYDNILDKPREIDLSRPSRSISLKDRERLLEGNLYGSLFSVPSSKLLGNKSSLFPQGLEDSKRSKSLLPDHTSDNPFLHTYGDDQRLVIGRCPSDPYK
GluN2A-CTD aa 1244-1348 (P35436, residues 1244-1348): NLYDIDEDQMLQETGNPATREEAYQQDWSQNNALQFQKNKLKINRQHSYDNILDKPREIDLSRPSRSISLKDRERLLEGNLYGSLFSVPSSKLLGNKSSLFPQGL
GluN2A-CTD aa 1349-1464 (P35436, residues 1349-1464): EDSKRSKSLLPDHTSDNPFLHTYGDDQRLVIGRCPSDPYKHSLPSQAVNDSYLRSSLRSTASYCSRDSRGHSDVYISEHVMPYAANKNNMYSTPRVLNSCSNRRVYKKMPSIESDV
GluN2A-CTD aa 1349-1388 (P35436, residues 1349-1388): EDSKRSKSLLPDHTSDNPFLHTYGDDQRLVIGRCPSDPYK
GluN2A-CTD aa 1389-1464 (P35436, residues 1389-1464): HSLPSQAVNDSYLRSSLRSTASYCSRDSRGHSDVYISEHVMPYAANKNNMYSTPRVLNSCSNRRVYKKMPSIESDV

Legend:
Experiment in all cases: co-IP; Flag-tagged Rph3A, myc-tagged GluN2A or HA-tagged PSD95 co-transfected; lysis buffer 50 mM Tris-HCl, 1 mM EDTA, 150 mM NaCl, 1% Igepal CA-630; anti-Flag or anti-myc magnetic agarose beads, 4 °C overnight; western blot; the GluN2A-CTD/PSD95 co-IP was done in the presence of WT or R9A Rph3A
[1] = biological target: GluN2A-CTD aa 1349-1464 (mouse) (UniProt P35436)
[2] = biological target: GluN2A-CTD aa 1349-1388 (mouse) (UniProt P35436)
[3] = biological target: GluN2A-CTD aa 1244-1348 (mouse) (UniProt P35436)
[4] = biological target: GluN2A-CTD aa 1244-1388 (mouse) (UniProt P35436)
[5] = biological target: GluN2A-CTD aa 1389-1464 (mouse) (UniProt P35436)
[6] = biological target: GluN2A C-terminal domain (aa 1244-1464), myc-tagged (mouse) (UniProt P35436)

Rabphilin-3A, full length, Flag-tagged (from UniProt Q9Y2J0 1-694)
binding [1]: binds
binding [2]: binds
binding [3]: binds
binding [4]: binds
binding [5]: binds
binding [6]: binds

B1: Rabphilin-3A IDR1 + ZF (aa 1-157) (domain or fragment, UniProt Q9Y2J0 1-157)
chain: MTDTVFSNSSNRWMYPSDRPLQSNDKEQLQAGWSVHPGGQPDRQRKQEELTDEEKEIINRVIARAEKMEEMEQERIGRLVDRLENMRKNVAGDGVNRCILCGEQLGMLGSACVVCEDCKKNVCTKCGVETNNRLHSVWLCKICIEQREVWKRSGAWF
binding [6]: binds

B2: Rabphilin-3A aa 1-179 (domain or fragment, UniProt Q9Y2J0 1-179)
chain: MTDTVFSNSSNRWMYPSDRPLQSNDKEQLQAGWSVHPGGQPDRQRKQEELTDEEKEIINRVIARAEKMEEMEQERIGRLVDRLENMRKNVAGDGVNRCILCGEQLGMLGSACVVCEDCKKNVCTKCGVETNNRLHSVWLCKICIEQREVWKRSGAWFFKGFPKQVLPQPMPIKKTKPQQ
binding [6]: binds
